From ChEMBL document CHEMBL3988442, “University of Dundee, Small-Polar-MMV Screening Library” (2021).

Values are the deposited “Percent Effect”, in %.
The record does not define 0% and 100%; most values in the screen are far below 50% and negative numbers occur (in some assays of this library far below -100).
The compounds are a random part of those screened.
A dash means the value is not listed here; it may have been measured.

A: 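Whole-cell assay for inhibitors of Mycobacterium tuberculosis growth, labelled Cornell in the record; the read-out is not stated. The concentration is filed as 10 mM, unlikely as a test dose, so the dose is not known. Higher means stronger inhibition (inferred from two other growth screens of the library). Size under these conditions: about 53,000 compounds, about 900 of them at 50% or above in at least one test.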
B: 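Assay on Mycobacterium tuberculosis, filed only as a heat shock assay from Cornell; the read-out is not stated. The concentration is filed as 10 mM, unlikely as a test dose, so the dose is not known. Direction is inferred from retests: higher values go with stronger inhibition. Of about 69,000 compounds tested this way, about 930 (1.4%) reached 50% or more in at least one test.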

SMILES,A,B
Cc1ccc(CNC(=O)NC(C)Cn2cccn2)cn1 (configuration not stated),-,-8.155
COCc1noc(CCC(=O)c2ccc3c(c2)OCCO3)n1,-15.93,-12.26
c1csc(CN2CCCN(c3ccc(Cn4ccnc4)cn3)CC2)c1,14.3,-13.19
Cc1nc(N(C)C)nc(NCCc2c[nH]cn2)c1C,-2.141,-24.37
CN(CCc1cn[nH]c1)C(=O)C(c1ccc(F)cc1)N(C)C (configuration not stated),21.29,-22.5
O=C(CCCN1CCCCC1)N1CCN(C(=O)c2ccc[nH]2)CC1,9.199,16.8
CCCS(=O)(=O)N1CCCC(c2nc(-c3ccccc3)c[nH]2)C1 (configuration not stated),56.46,97.89
CC(c1nc(C2CC2)no1)N(C)Cc1ccc2c(c1)OCCO2 (configuration not stated),28.54,-16.15
Fc1cccc(N2CCc3ncnc(N4CCOCC4)c3CC2)c1,-0.9872,-7.179
O=C(O)C(F)(F)F.[H][C@]12CCN(S(=O)(=O)c3ccccc3F)C[C@@]1([H])OCCN(C)C2,2.566,-5.535
Cn1ccnc1CN1CCC2(CC1)CN(Cc1cccnc1)C(=O)CO2.O=C(O)C(F)(F)F.O=C(O)C(F)(F)F,-10.66,-1.022
CC(C)c1noc(CCCC(=O)N2CCN(Cc3cccnc3)CC2)n1,-,5.94
COCCN(CCOC)Cc1c(C)nc2ccccc2c1O,-1.953,-11.64
Cc1ccccc1-c1noc(CNc2ccc(F)cc2OCCO)n1,15.2,-8.825
Cc1cc(C2CCCN2Cc2nc(-c3ccco3)no2)on1 (configuration not stated),-,-10.53
CNc1nc(C)c(C(=O)NCC(C)(C)N2CCCCC2)s1,5.581,0.4162
[H][C@@]12CCN(Cc3cccc(C)n3)CC[C@]1([H])[C@@H](COC)CNC2=O,-2.031,-9.919
Cn1cc(CNc2ncnc3c2CCN(Cc2ccsc2)CC3)cn1,9.491,-4.893
O=C(O)C(F)(F)F.O=C(O)C(F)(F)F.O=C(O)C(F)(F)F.[H][C@@]12C[C@@H](Oc3cccc(F)c3)CN1CCN(Cc1ccncc1)C2,4.571,-23.95
N[C@@H](Cc1c[nH]cn1)C(=O)N1CCC(Oc2ccc(F)cc2)CC1,-43.03,2.473
CCc1oc(C(=O)NCCNS(C)(=O)=O)cc1CN1CCCC1,-6.57,-17
Cc1ccc(NC(=O)c2cccc(N(C)C)c2)nc1,14.78,9.703
[H][C@]12CC[C@](O)(CC1)C(CO)N2Cc1ccc(F)cc1 (some centres not stated),-3.868,36.63
O=C(O)C(F)(F)F.[H][C@]12CCN(C(=O)CCC)CC[C@@]1([H])S(=O)(=O)CCN2Cc1cccc(C)n1,15.76,-36.72
Cc1cccc(CN2CCCC(O)(CNCc3ncccc3C)C2=O)c1 (configuration not stated),-,-13.21
Cc1cc(N2CCCC(O)(CN(C)C(=O)CCN)C2)c2cnccc2n1 (configuration not stated),-32.36,-35.84
COc1cccc2c1OCC(Cc1cc(C(N)=O)ccn1)C2 (configuration not stated),-32.31,-23.01
O=C(NCC(O)c1ccsc1)c1sccc1OC(F)F (configuration not stated),14.09,1.914
C=C(C)COc1cccc(CNCCc2c[nH]cn2)c1,-7.723,-12.72
O=C(Cc1ccc(F)cc1)N1CCn2cc(Cn3cccn3)nc2C1.O=C(O)C(F)(F)F,24.14,1.862
CCC(C)Oc1cc(C(=O)N(c2cccnc2)C(C)C)ccn1 (configuration not stated),19.33,-14.7
CCN1CC2(CCC1=O)CCN(CCOc1ccc(F)cc1)CC2,6.677,-2.072
COc1ccc(CCNC(=O)Cn2ncc3c2c(C)nn3C)cc1,-,8.636
CCC(CC)C(=O)N1CCN(Cc2nc3ccccc3c(=O)[nH]2)CC1,5.405,-6.627
CCCc1cc(N2CCC(NCCc3ccc(O)cc3)CC2)nc(C)n1,-24.52,-0.1538
COc1ccccc1OCCCn1c(C)c(C)oc1=O,-,-22.13
CC(=O)N1C[C@H](NC(=O)c2ccnc(N)c2)[C@@H](C(C)C)C1,-30.85,-1.868
Cc1cc(C)c2c(NCc3nncn3C3CCCCC3)ncnc2n1,-,13.53
CCOCC(O)CN1CCN(C(=O)c2ccc(OC)cc2F)CC1 (configuration not stated),12.54,-20.09
CO[C@H]1C[C@@H](O)C12CCN(Cc1nc(C(F)(F)F)no1)CC2,-,19.29
CC(=O)NCC(=O)N1C[C@@H](C)[C@@]2(CCN(c3ccsc3)C2=O)C1,-54.98,-1.428
Cc1nc(-c2ccccc2)n(CC(=O)NC(C)C)n1,-,9.728
c1cc(-c2noc(CN3CCc4c(ncn4C4CC4)C3)n2)cs1,4.794,21.39
CC(C)Oc1ncccc1CNC(=O)N1CCC(n2cccc2)CC1,-,-3.09
CCn1nc2c(cc1=O)CN(CC(=O)Nc1nnc(C)s1)CC2,-,8.197
COCc1ncc(-c2nccn2CCS(C)(=O)=O)cn1,-35.44,-15.33
Cc1nc(CN(C)CC2CCCN2c2cccnn2)nc2ccccc12 (configuration not stated),16.75,34.6
O=C(c1cc(Cl)c[nH]1)N1CCN(CCc2ccccn2)CC1,10.92,-3.382
CS(=O)(=O)N[C@@H]1CCN(Cc2cccnc2)[C@H]1Cc1ccccc1.O=C(O)C(F)(F)F.O=C(O)C(F)(F)F,5.745,-9.989
COCc1ncc(CN2CCC(Oc3ccc(OC)cc3)CC2)cn1,-15.6,18.88
CC(=O)N(C)c1nc(CN2CCCC2c2cnn(C)c2)cs1 (configuration not stated),-,-8.69
CC(O)CN(Cc1cccc(C(=O)N(C)C)c1)c1ccccc1 (configuration not stated),-,-21.83
CN(C(=O)c1ccco1)c1nc2c(s1)CCCC2,11.34,20.95
CC(N)C(=O)N1CCC(Oc2cccc(C(F)(F)F)c2)CC1 (configuration not stated),24.34,10.6
NC(=O)CNC(=O)c1ccc(CNCc2ccc(F)cc2F)cc1,-59.72,-6.151
N#CCCCS(=O)(=O)NC(=O)c1ccccc1F,19.19,-3.576
CCOc1cc(/C=C/c2ncc(C(=O)O)s2)cc(Cl)c1OC,-,9.926
[H][C@]12CC[C@@]3(N=C(C)N(CC4CC4)C3=O)[C@@]1([H])CN(C(=O)NC(C)C)C2,8.577,6.328
O=C(O)C(F)(F)F.c1ccc(-c2ncc3c(n2)C2(CCN(CC4CC4)C2)COC3)cc1 (configuration not stated),3.025,3.373
CS(=O)(=O)Cc1ccc(OCc2ccc(F)cc2)cc1,-10.76,-39.62
O=C1CSC(c2ccc(O)cc2)c2sccc2N1 (configuration not stated),-43.66,8.295
Cc1cnn(CCC(=O)N2CCCC(c3nc(C)no3)C2)c1 (configuration not stated),-22.11,-9.939
C=C(C)CN1CCCC1c1nc(Cc2ccc(F)cc2)no1 (configuration not stated),-5.257,-4.385
Cc1cc(CNc2cccc(C(=O)N(C)c3ccccc3)c2)no1,-7.896,-2.307
O=C(Cc1ccsc1)N1CCCCC1c1ccn2ccnc2n1 (configuration not stated),-34.24,-29.84

For reference, 4 entries once more:

{"smiles": "CC(=O)N1C[C@H](NC(=O)c2ccnc(N)c2)[C@@H](C(C)C)C1", "A": -30.85, "B": -1.868}
{"smiles": "CNc1nc(C)c(C(=O)NCC(C)(C)N2CCCCC2)s1", "A": 5.581, "B": 0.4162}
{"smiles": "[H][C@]12CC[C@@]3(N=C(C)N(CC4CC4)C3=O)[C@@]1([H])CN(C(=O)NC(C)C)C2", "A": 8.577, "B": 6.328}
{"smiles": "CO[C@H]1C[C@@H](O)C12CCN(Cc1nc(C(F)(F)F)no1)CC2", "B": 19.29}